The values that follow come from PMC5329690 (International Journal of Peptides, 2017).

The data set can be described thus: general procedure: Fmoc solid-phase peptide synthesis; Fmoc-Rink-amide ChemMatrix, 0.47 mmol/g; HBTU/DIEA. As to conditions: for difficulty met: whole synthesis, scale of the general procedure 50 μmoL.

Turning to “BodiFluor-O2Oc-Tat(48-60)-O2Oc-Asp(paromomycin)-amide”, the difficulty met entry is “Analytical HPLC revealed a complex mixture”. Moreover, the outcome (conjugation step) is “present but in such low amounts and purity to render workup unfeasible”.
On to “Fmoc-O2Oc-Tat(48-60)-O2Oc-Asp(O-2-PhiPr)-resin”, for which the difficulty met entry is given as “gave rise to a complex array of products”.
